Measurements from PMC6731260.
Results are given in words; binding and its absence hold for the method and conditions named. Binding seen in cells or lysates may run through a third protein. Binding calls can cover weak binding; strength is not graded here. Tags and fused reporters may be left off the sequences shown.

Legend:
[1] = molecular target: EGFP-ESRRB^S25A (full-length mouse Esrrb^S25A in pEGFP-C1) (mouse); test: co-IP; HEK293T cells co-expressing EGFP-ESRRB or EGFP-ESRRB^S25A with FLAG-OCT4 or FLAG-NANOG; Sucrose-NP40 lysate with GFP-magnetic beads, 4 °C, 2 h; immunoblot; also after DMSO or Thiamet-G (OGA inhibitor) for 48 h
[2] = molecular target: EGFP-ESRRB (full-length mouse Esrrb in pEGFP-C1) (mouse); test: as above

B1: FLAG-NANOG (full-length mouse Nanog in p3xFLAG-CMV-10) (protein, UniProt Q80Z64 1-305)
chain: MSVGLPGPHSLPSSEEASNSGNASSMPAVFHPENYSCLQGSATEMLCTEAASPRPSSEDLPLQGSPDSSTSPKQKLSSPEADKGPEEEENKVLARKQKMRTVFSQAQLCALKDRFQKQKYLSLQQMQELSSILNLSYKQVKTWFQNQRMKCKRWQKNQWLKTSNGLIQKGSAPVEYPSIHCSYPQGYLVNASGSLSMWGSQTWTNPTWSSQTWTNPTWNNQTWTNPTWSSQAWTAQSWNGQPWNAAPLHNFGEDFLQPYVQLQQNFSASDLEVNLEATRESHAHFSTPQALELFLNYSVTPPGEI
[1]
  binding: binds
[2]
  binding: binds
